Experimental data taken from patent publication US9937144B2, “Treatment of drug abuse by preventing GAPDH nitrosylation” (THE JOHNS HOPKINS UNIVERSITY, priority 2013, dated 2018).
For at least one compound, name, drawing or mass did not settle the structure.

Sequences of proteins named here, by UniProt entry; tags and fusion partners are left off. A change or cut given only in a name is not applied to a line headed by its entry.
UniProt P16858: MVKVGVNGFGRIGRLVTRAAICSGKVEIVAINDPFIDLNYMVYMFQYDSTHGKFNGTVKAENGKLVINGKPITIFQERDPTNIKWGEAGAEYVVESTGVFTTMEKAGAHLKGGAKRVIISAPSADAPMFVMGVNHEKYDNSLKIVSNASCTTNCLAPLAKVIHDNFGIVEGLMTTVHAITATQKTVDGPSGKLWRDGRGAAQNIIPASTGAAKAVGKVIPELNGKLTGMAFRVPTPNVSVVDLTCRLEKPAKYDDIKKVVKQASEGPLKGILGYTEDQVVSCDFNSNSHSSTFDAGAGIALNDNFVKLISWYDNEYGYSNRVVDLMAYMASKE

Biological target: nitrosylation of GAPDH (SNO-GAPDH) (Mus musculus, UniProt P16858)
Experiment: S-nitrosylation biotin switch assay on striatum lysates of cocaine-injected mice
Settings: SCH23390 administration

CN1CCc2cc(Cl)c(O)cc2[C@@H](c2ccccc2)C1 [SCH23390]
stimulation of GAPDH nitrosylation by neurotoxic cocaine regimen (neurotoxic cocaine regimen, FIG. 7C): blocked | stimulation of GAPDH nitrosylation by stimulant cocaine regimen (stimulant cocaine regimen, FIG. S2B (7B)): blocked
